Assay results reported in paper PMC11481484.

Molecular target: T1, Rubella virus E1 envelope glycoprotein (Rubella virus (RuV)) (UniProt P08563)
T1 sequence (chain, N-linked carbohydrates (sites not printed)): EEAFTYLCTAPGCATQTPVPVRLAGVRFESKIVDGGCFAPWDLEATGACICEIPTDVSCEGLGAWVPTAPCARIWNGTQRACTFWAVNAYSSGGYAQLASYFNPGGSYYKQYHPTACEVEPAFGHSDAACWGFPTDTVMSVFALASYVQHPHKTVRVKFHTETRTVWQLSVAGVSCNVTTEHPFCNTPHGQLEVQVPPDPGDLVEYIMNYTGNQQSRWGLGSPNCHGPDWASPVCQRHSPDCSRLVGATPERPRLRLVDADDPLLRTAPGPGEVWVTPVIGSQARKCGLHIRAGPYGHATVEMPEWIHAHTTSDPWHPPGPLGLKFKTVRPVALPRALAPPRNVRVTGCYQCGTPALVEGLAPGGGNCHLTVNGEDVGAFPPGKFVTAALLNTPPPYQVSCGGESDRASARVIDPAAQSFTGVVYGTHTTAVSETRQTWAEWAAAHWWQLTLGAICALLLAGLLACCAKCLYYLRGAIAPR
Test: cross-linking + co-IP; BHK-21 cells 42 h post-electroporation with WT or mutant viral RNA cross-linked with 1 mM DSP in PBS, 10 min, room temperature, quenched with 125 mM glycine; lysis buffer 2 (10 mM sodium phosphate pH 7.4, 50 mM NaCl, 1% Triton X-100); IP with mAb E1-20 or control mAb; cross-link reversed by DTT; western blot with RuV pAb

With “Rubella virus E2 envelope glycoprotein, pseudorevertant Y281V” the binding was “binds”.

These are yes or no findings as the source states them, for the method shown. Binding seen in cells or lysates may run through a third protein. Binding calls can cover weak binding; strength is not graded here.
